The data set concerns juvenile mice. As to conditions: mouse, in vivo.

Here are results for one substance from patent publication US20230310654A1 (priority 2020, published 2023).

With conduritol-β-epoxide [CBE], the open field assay result is recorded as “no general motor deficits”.
